In article PMC9253516:
Results are given in words; binding and its absence hold for the method and conditions named. For part of these data: Binding calls can cover weak binding; strength is not graded here.

B1: Borealin_(10–280) (domain or fragment, UniProt Q53HL2 10-280)
chain: VAKTNSLRRRKLASFLKDFDREVEIRIKQIESDRQNLLKEVDNLYNIEILRLPKALREMNWLDYFALGGNKQALEEAATADLDITEINKLTAEAIQTPLKSAKTRKVIQVDEMIVEEEEEEENERKNLQTARVKRCPPSKKRTQSIQGKGKGKRSSRANTVTPAVGRLEVSMVKPTPGLTPRFDSRVFKTPGLRTPAAGERIYNISGNGSPLADSKEIFLTVPVGGGESLRLLASDLQRHSIAQLDPEALGNIKKLSNRLAQICSSIRTHK
B2: Borealin (endogenous) (protein, UniProt Q53HL2 1-280)
chain: MAPRKGSSRVAKTNSLRRRKLASFLKDFDREVEIRIKQIESDRQNLLKEVDNLYNIEILRLPKALREMNWLDYFALGGNKQALEEAATADLDITEINKLTAEAIQTPLKSAKTRKVIQVDEMIVEEEEEEENERKNLQTARVKRCPPSKKRTQSIQGKGKGKRSSRANTVTPAVGRLEVSMVKPTPGLTPRFDSRVFKTPGLRTPAAGERIYNISGNGSPLADSKEIFLTVPVGGGESLRLLASDLQRHSIAQLDPEALGNIKKLSNRLAQICSSIRTHK

Legend:
Sgo1_(1–415) (human) = experiment: cross-linking; EDC (zero-length) with N-hydroxysulfosuccinimide on the gel-filtrated CPC-Sgo1 1-415 complex, 25 mM Hepes pH 6.8, 150 mM NaCl, 1 h 30 min at room temperature; mass spectrometry (CLMS), 1% link-level FDR; both purified
[1] = biological target: Sgo1_(130–280 4A)-LacI-GFP (human); experiment: LacO-LacI tethering assay (immunofluorescence); Sgo1-LacI-GFP fusions tethered to a LacO array in U-2 OS-LacO Haspin CM cells (S-trityl-L-cysteine overnight); recruitment of endogenous Aurora B and Borealin or of Survivin-mCherry to the LacO foci, intensity over GFP
[2] = biological target: Sgo1_(159–240 4A)-LacI-GFP (human); experiment: as above
[3] = biological target: Sgo1_(274–415)-LacI-GFP (human); experiment: as above
[4] = biological target: Sgo1_(130–280)-LacI-GFP (human); experiment: as above
[5] = biological target: Sgo1_(159–240)-LacI-GFP (human); experiment: as above
[6] = biological target: Sgo1_(415–527)-LacI-GFP (human); experiment: as above
[7] = biological target: Sgo1_(1–130)-LacI-GFP (human); experiment: as above
[8] = biological target: Sgo1_(1–527)-LacI-GFP (human); experiment: as above

| Binder | binding (Sgo1_(1–415) (human)) | binding [1] | binding [2] | binding [3] | binding [4] | binding [5] | binding [6] | binding [7] | binding [8] |
| --- | --- | --- | --- | --- | --- | --- | --- | --- | --- |
| B1 | binds |  |  |  |  |  |  |  |  |
| B2 |  | no binding | no binding | no binding | binds | binds | no binding | binds | binds |
